For series [1], the system named is GATA-1 mRNA. In words: Northern hybridization of GATA-1 mRNA in treated K562 cells. It is filed as cell-based. The conditions noted are these: Homo sapiens, K562, 96 h, read-out: Fold Induction, GATA-1 RNA. On the procedure:
(§1) Total RNA was prepared by the method of McDonald as described in Sambrook et al., (1989) Molecular Cloning: A Laboratory Manual, 2nd Edition, Cold Spring Harbor Laboratory Press. 10 μg total cellular RNA was electrophoresed through agarose gels containing 3.3% formaldehyde. The electrophoresed RNA was then transferred to nitrocellulose filters by standard methods. Each sample was hybridized to specific probes for gamma globin mRNA, mRNA encoding the erythroid specific transcription factor GATA-1 and 28S ribosomal RNA (which was used for standardization). The gamma globin and GATA-1 probes were cDNA probes, which were labeled with ^32 p by random priming reactions (Promega Biotech Inc.). The 28S ribosomal RNA probe was an oligonucleotide having the sequence 5' […] 3' (SEQ ID NO: 3), which was labeled by 5' end labeling using T4 polynucleotide kinase (New England Biolabs). Nucleotide probes were hybridized to the RNA nitrocellulose filters according to standard techniques. After hybridization, radioactive signals on the nitrocellulose filters were directly quantified using a BioRad GS-250 Molecular Imager. mRNA hybridization intensities were normalized to the amount of 28S ribosomal RNA present for each sample.

Series [2] has as its system K562 cells. On the procedure: To normalize luciferase units to the number of viable cells, parallel cell viability assays were performed using 3-(4,5-dimethylthiazol-2-yl)-2,5-diphenyltetrazolium bromide (MTT) (Vistica, D. T. et al. (1991) Cancer Res. 51:2515-2520). Transfected K562 cells were plated in 96 well dishes at a density of 2×10^4 and 2×10^3 cells per 100 μl per well. 24 hours later, the cells were treated with test compounds (at a final concentration of 5 mM). At 24, 50, 74 or 122 hours after treatment, 50 μl of 3 mg/ml MTT in PBS was added to each well. The 96 well plate was then incubated at 37° C. for 4 to 5 hours. The formazan derivatives formed from tetrazolium by viable cells were solubilized by the addition of 50 μl/well 25% SDS, pH 3, overnight at 37° C. The plates were than read at a wavelength of 550 nm.

Series [3] relates to gamma globin mRNA. Briefly: Northern hybridization of gamma globin mRNA in treated K562 cells. In kind it is cell-based. The conditions noted are these: Homo sapiens, K562, 96 h, read-out: Fold Induction, gamma globin RNA. The protocol: as §1
Series [4] relates to gamma globin gene expression (gamma3'PE reporter) in K562 cells. Briefly: gamma globin promoter-luciferase reporter assay in stably transfected gamma3'PE K562 cells. The conditions noted are these: 5 mM, normalized to fold induction by BA. On the procedure: The gamma globin 5' promoter and 3' enhancer fragments, alone or in combination with each other or another fragment, were inserted into restriction endonuclease sites flanking the coding sequences of the luciferase gene in pGL2 using standard recombinant DNA techniques (pGL2 was obtained commercially from Promega Biotech). Constructs were prepared which contained: 1) the gamma globin promoter alone upstream of the luciferase gene (gamma); 2) the gamma globin promoter upstream of the luciferase gene and the gamma globin 3' enhancer downstream of the luciferase gene (gamma3'PE); 3) the gamma globin promoter upstream of the luciferase gene and the SV40 enhancer downstream of the luciferase gene (gammaSV40); 4) the beta globin promoter upstream of the luciferase gene and the gamma globin 3' enhancer downstream of the luciferase gene Coeta3'PE); and 5) hypersensitive sites 2 and 3 G-IS2 and HS3) of the 5' globin enhancer upstream of the gamma globin promoter upstream of the luciferase gene and the gamma globin 3' enhancer downstream of the luciferase gene (HS2/3gamma3'PE). These constructs are illustrated schematically in FIG. 2. […]
K562 host cells carrying gamma globin-reporter gene constructs were used to lo screen compounds for their ability to induce globin gene expression, as measured by increased reporter gene activity in the host cells upon treatment with the compound. […]

Regarding `CC(C)CC(=O)O` [IVA, isovaleric acid], the fold induction at 5000 µM in series [1] came to 23; in series [3], 7. For the same molecule, the “cell viability relative to untreated cells (FIG. 7)” value in series [2] is recorded as “equivalent to that of untreated cells”. Further, the “induction relative to BA at 74 hr (FIG. 4)” value in series [4] (74 hr) was “marginally better inducers than BA at 74 hr”. The “induction relative to BA at 122 hr (FIG. 4)” value in series [4] (122 hr) is given as “significantly better inducers than BA at 122 hr post induction”.
